PubChem BioAssay AID1671195 – Yale University – 2021
In all, the deposit lists about 22,000 reagents; below is an unselected part. About 1,510 of them (6.9%) were called active. 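Active includes knockdowns raising or lowering LDL uptake; positive z-scores mean more uptake, negative mean less.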 Entries without a mark were called inactive. No sequences are given here.

Purpose: 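Regulators of LDL receptor activity judged by labelled LDL uptake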 (primary screen)
System: human Huh7 hepatoma cells
Knock-down reagent: siRNA pool against human genes, 18 nM
Timing: about 2 to 2.5 days of knockdown, then 8 h LDL uptake
Treatment: DiI-labelled LDL at 30 µg/ml for 8 h, in lipoprotein-deficient serum medium
Measured: 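Per-cell DiI-LDL intensity by automated imaging; well means scaled to the plate median and given as a robust z-score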
Direction: robust z-score: higher = more LDL uptake after knockdown
Hit rule: 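Active when two or more replicates show a robust z-score above 2 or below -2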

The first 7 entries, to show the layout:
target gene | robust z-score, replicate 1 | robust z-score, replicate 2 | robust z-score, replicate 3
STAMBP (STAM binding protein) | 0.109 | -0.324 | 0.222
CMKLR1 (chemerin chemokine-like receptor 1) | -0.632 | -1 | -0.631
CCDC33 (coiled-coil domain containing 33) | 1.4 | 0.822 | 0.912
GPATCH8 (G-patch domain containing 8) | -1.4 | -0.988 | -1.05
ABCF2 (ATP binding cassette subfamily F member 2) | -0.0139 | 0.192 | -0.278
RPS15 (ribosomal protein S15) | -0.326 | -1.61 | 0.688
ODAD2 (outer dynein arm docking complex subunit 2) | -0.115 | -0.493 | -1.39

The list itself, from the first entry:
target gene | robust z-score, replicate 1 | robust z-score, replicate 2 | robust z-score, replicate 3
STAMBP (STAM binding protein) | 0.109 | -0.324 | 0.222
CMKLR1 (chemerin chemokine-like receptor 1) | -0.632 | -1 | -0.631
CCDC33 (coiled-coil domain containing 33) | 1.4 | 0.822 | 0.912
GPATCH8 (G-patch domain containing 8) | -1.4 | -0.988 | -1.05
ABCF2 (ATP binding cassette subfamily F member 2) | -0.0139 | 0.192 | -0.278
RPS15 (ribosomal protein S15) | -0.326 | -1.61 | 0.688
ODAD2 (outer dynein arm docking complex subunit 2) | -0.115 | -0.493 | -1.39
DCP1B (decapping mRNA 1B) | -0.822 | -0.783 | 0.665
UEVLD (UEV and lactate/malate dehyrogenase domains) | 0.882 | -0.251 | 1.04
MPC1L | 0.129 | 0.274 | -0.262
GLIPR1L1 (GLIPR1 like 1) | 0.375 | 0.427 | 0.0215
SDCCAG8 (SHH signaling and ciliogenesis regulator SDCCAG8) | -0.468 | -0.496 | -1.32
LOC400400 (retired record) | -0.833 | -0.459 | -0.456
ORC6 (origin recognition complex subunit 6) | -0.0491 | 0.0862 | -0.185
RAD23B (RAD23 nucleotide excision repair protein B) | -2.02 (active) | -2.72 | -1.74
TNFRSF13B (TNF receptor superfamily member 13B) | 0.351 | 1.09 | 0.551
NBPF3 (NBPF member 3) | -0.203 | -0.425 | -0.139
MSANTD4 (Myb/SANT DNA binding domain containing 4 with coiled-coils) | -0.614 | -0.604 | -0.59
P3H2 (prolyl 3-hydroxylase 2) | 3.05 (active) | 2.98 | 2.9
TMEM267 (transmembrane protein 267) | -0.779 | -1.04 | -0.7
GRK1 (G protein-coupled receptor kinase 1) | -1.17 | -1.15 | -1.42
KRT19 (keratin 19) | 0.297 | 0.674 | -0.03
DAZAP1 (DAZ associated protein 1) | -0.32 | -0.599 | -0.632
TMEM260 (transmembrane protein 260) | -0.904 | -0.455 | 0.32
TRMT112 (tRNA methyltransferase activator subunit 11-2) | -0.468 | 1.18 | -0.946
COX7C (cytochrome c oxidase subunit 7C) | -0.237 | 0.26 | 0.252
FGF21 (fibroblast growth factor 21) | 0.511 | 0.442 | 0.00409
CHM (CHM Rab escort protein) | -0.327 | -0.252 | -0.432
ANKRD28 (ankyrin repeat domain 28) | 0.787 | -0.692 | 1.14
SMIM11 (small integral membrane protein 11) | -0.94 | -1.86 | -1.29
RPS17 (ribosomal protein S17) | -1.18 | 0.0387 | -0.264
MCTP2 (multiple C2 and transmembrane domain containing 2) | 0.132 | 0.6 | 0.585
BSPRY (B-box and SPRY domain containing) | 0.259 | 0.573 | 0.508
LOC440890 (retired record) | -0.55 | -0.854 | -1.14
RRN3 (RNA polymerase I transcription factor RRN3) | -0.12 | -0.256 | 0.0364
CACNB3 (calcium voltage-gated channel auxiliary subunit beta 3) | 1.63 | 0.697 | 1.36
UBAP1 (ubiquitin associated protein 1) | -0.624 | -0.38 | -0.522
AQP6 (aquaporin 6) | -0.295 | -0.35 | -0.546
B4GALNT4 (beta-1,4-N-acetyl-galactosaminyltransferase 4) | -0.954 | -0.905 | -0.754
TMEM9B (TMEM9 domain family member B) | -1.62 | -1.04 | -0.662
TSPAN7 (tetraspanin 7) | 1.19 | 0.963 | 0.784
PLEKHM1 (pleckstrin homology and RUN domain containing M1) | -0.901 | 1.48 | 0.0174
RALYL (RALY RNA binding protein like) | -0.834 | -1.75 | -0.923
RAB5C (RAB5C, member RAS oncogene family) | -2.79 (active) | -1.52 | -2.65
H2AC1 (H2A clustered histone 1) | -0.496 | 0.0631 | -0.265
ROPN1B (rhophilin associated tail protein 1B) | 0.963 | 1.09 | -0.0493
GPR88 (G protein-coupled receptor 88) | 0.936 | -0.132 | -0.377
ING4 (inhibitor of growth family member 4) | 0.28 | -0.0247 | 0.3
OC90 (otoconin 90) | 2.66 | 0.887 | 1.65
DPH7 (diphthamide biosynthesis 7) | 2.35 | 0.442 | 0.308
IGFBP1 (insulin like growth factor binding protein 1) | 1.14 | 0.279 | 0.514
ANAPC1P6 (ANAPC1 pseudogene 6) | -1.27 | -1.48 | -1.61
METTL18 (methyltransferase 18, RPL3 N3(tau)-histidine) | -0.414 | -1.69 | -1.14
RBM12B (RNA binding motif protein 12B) | 0.597 | 0.877 | 0.894
POFUT1 (protein O-fucosyltransferase 1) | 0.19 | -1.2 | -1.56
ZAR1 (zygote arrest 1) | -0.584 | -0.681 | -0.647
ATP5MK (ATP synthase membrane subunit k) | -0.343 | 0.144 | -0.15
LOC389393 (retired record) | -1.09 | -1.14 | -1.32
GALNT9 (polypeptide N-acetylgalactosaminyltransferase 9) | -0.628 | 1.68 | -0.381
SPANXN1 (SPANX family member N1) | -0.335 | -0.363 | -0.177
B4GALT2 (beta-1,4-galactosyltransferase 2) | 0.221 | 0.415 | -0.264
LOC388587 (retired record) | 0.0673 | -0.00507 | 0.383
FYCO1 (FYVE and coiled-coil domain autophagy adaptor 1) | 0.744 | 1.12 | 1.62
RAG2 (recombination activating 2) | 1.2 | 0.258 | 1.03
SINHCAF (SIN3-HDAC complex associated factor) | -0.961 | -1.07 | -0.987
CD5L (CD5 molecule like) | -1.22 | -1.15 | -1.58
E2F8 (E2F transcription factor 8) | -0.493 | -0.333 | -0.0769
EIF3A (eukaryotic translation initiation factor 3 subunit A) | 0.379 | 2.54 | 0.649
